# Measurements: PubChem BioAssay AID445 (National Center for Advancing Translational Sciences (NCATS), 2006)
# Some of the results follow. Shown are side measurements of this screen, not its main read-out; they come without a call. The list favours compounds with an active or inconclusive main result. Words in brackets tell the shape of the fitted curve; partial curves, single points and poor fits give uncertain potencies.
# Experiment: IkB Signaling
# Conditions: ABC-DLBCL IkBa-CBG/CBR dual luciferase ratio (green luciferase fused to IkBa over red control in OCI-Ly3 lymphoma cells), 4 h
# Method in brief: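 Curves were fitted separately to fusion (green), unfused (red) and ratio luminescence, then classed by r2, magnitude and activity. Cells: OCI-Ly3, 4 h compound plus doxycycline at 37C; 10 uM MG-132 defined full response.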
# [1] = measured here: control luc red channel unless noted
smiles,measurement,setting,value
COc1cccc(NC(=O)c2c(C)nn(-c3cccc(C)c3)c2-n2cccc2)c1,AC50,[1],"15.8 µM [falling, partial curve]"
CCC1Sc2ccccc2N(CC(=O)NCc2ccc(C)cc2)C1=O (configuration not stated),AC50,[1],"25.1 µM [falling, partial curve]"
Cc1cccn2c(=O)c3cc(C(=O)NCC(C)C)sc3nc12,AC50,[1],"0.126 µM [rising, full curve]"
Cc1noc2ncnc(N3CCN(c4cccc(C(F)(F)F)c4)CC3)c12,AC50,[1],"31.6 µM [falling, single point]"
COc1ccc(C)cc1-n1c(-c2ccc(Cl)cc2)cc2c1CC(C)(C)CC2=O,AC50,[1],"20 µM [falling, partial curve]"
O=C(c1ccc(Cn2c(=O)[nH]c3ccccc3c2=O)cc1)N1CCN(c2ccccn2)CC1,AC50,[1],"12.6 µM [falling, partial curve]"
CCc1ccccc1S(=O)(=O)Cc1ccc(C(=O)NCc2ccc3c(c2)OCO3)o1,AC50,[1],"25.1 µM [falling, single point]"
COc1ccccc1-c1nnc2sc(COc3ccc(Cl)cc3)nn12,AC50,[1],"6.31 µM [falling, partial curve]"
CC1(C)Oc2ccc3ccc(=O)oc3c2-c2cn[nH]c21,AC50,measured here: IkB-luc green channel,"12.6 µM [falling, partial curve]"
same,AC50,measured here: control luc red channel,"20 µM [falling, partial curve]"
Cc1ccccc1NC(=O)C(=O)NCC(c1ccc2c(c1)OCO2)N1CCN(c2ccccc2)CC1 (configuration not stated),AC50,[1],"39.8 µM [falling, single point]"
CCOc1ccc(C2C(C(=O)Nc3ccccc3)=C(C)Nc3nc(-c4ccccc4Cl)nn32)cc1OC (configuration not stated),AC50,[1],"6.31 µM [falling, partial curve]"
CCCn1cnc2cc(NCc3cccc(OC)c3)ccc21,AC50,[1],"3.16 µM [falling, partial curve]"
C=CCN(C(=O)CSc1nc2[nH]ncc2c(=O)n1-c1ccccc1OC)c1ccccc1,AC50,[1],"7.94 µM [falling, partial curve]"
CCOc1ccc(Nc2cc(C)nc3nncn23)cc1,AC50,[1],"20 µM [falling, single point]"
COc1ccc2ccccc2c1C1CC(=O)N2CN(Cc3ccco3)CSC2=C1C#N (configuration not stated),AC50,[1],"2.51 µM [falling, full curve]"
CN(C)c1ccc(C(=O)OCC(=O)c2cccs2)cc1,AC50,[1],"12.6 µM [falling, partial curve]"
Cc1ccc(Cc2nc3ccccc3nc2SCC(=O)N2CCC(C)CC2)cc1,AC50,[1],"31.6 µM [falling, partial curve]"
Cc1ccc(-n2nc(C)c3c(C)c(CCC(=O)NC(C)c4ccccc4)c(C)nc32)cc1 (configuration not stated),AC50,[1],"5.01 µM [falling, full curve, poor fit]"
O=C1CC(N2CCC(c3nc4ccccc4o3)CC2)C(=O)N1c1ccc(Cl)cc1 (configuration not stated),AC50,[1],"7.94 µM [falling, partial curve]"
CCN(CC)C(=O)c1cc(-c2ccc(Br)cc2)on1,AC50,[1],"15.8 µM [falling, partial curve]"
COc1cccc(C(=O)Nc2ccc3nc(SCC(=O)N(C)c4ccccc4)sc3c2)c1,AC50,[1],"3.98 µM [falling, partial curve]"
Cc1ccc(CNC(=O)c2ccc(CSc3nc4ccncc4n3Cc3ccc(C)cc3)cc2)cc1,AC50,[1],"25.1 µM [falling, partial curve]"
COc1ccc(CCNC(=O)CCc2cn(Cc3ccccc3Cl)c3ccccc23)c(OC)c1,AC50,[1],"15.8 µM [falling, partial curve]"
O=C(Nc1ccccc1)c1cccc(N2CCCC2=O)c1,AC50,[1],"3.98 µM [falling, full curve]"
Cc1cc(C)c(NC(=O)Cn2c(=O)oc3cc(S(=O)(=O)N4CCCCCC4)ccc32)c(C)c1,AC50,[1],"6.31 µM [falling, partial curve]"
COc1ccc(F)cc1CN1CCN(c2cc(C)nc3c4c(C)cc(C)nc4nn23)CC1,AC50,[1],"12.6 µM [falling, partial curve]"
Cc1ccnc(NC(=O)Nc2ccc3c(c2)N(C)C(=O)CS3)c1,AC50,[1],"6.31 µM [falling, full curve]"
Cc1cc(Cl)ccc1-n1c(CCC(=O)O)ccc1-c1cccs1,AC50,[1],"20 µM [falling, partial curve]"
COC(=O)COc1ccc(-c2nnc(Nc3ccc(O)cc3)c3ccccc23)cc1,AC50,[1],"3.98 µM [falling, full curve]"
Cc1cccc2c1-c1sc(C(=O)Nc3ccc(F)cc3F)cc1CO2,AC50,[1],"0.02 µM [falling, full curve]"
O=c1c2sc3ccccc3c2n(Cc2cccc(F)c2)c(=O)n1CCc1ccccc1,AC50,[1],"12.6 µM [falling, partial curve]"
CCN(CC)C(=O)Cn1c(=O)n(CCCCCC(=O)NCc2ccc3c(c2)OCO3)c(=O)c2sccc21,AC50,[1],"1.58 µM [rising, partial curve]"
Cc1c(C(=O)Nc2ccccc2)sc2nc(-c3ccccc3)cn12,AC50,[1],"10 µM [falling, partial curve]"
CCOc1ccc(N(C)C(=O)c2oc(=O)c3ccccc3c2-c2ccccc2)cc1,AC50,[1],"25.1 µM [falling, partial curve]"
COCc1cc(=O)n2[nH]c(-c3ccccc3)cc2n1,AC50,[1],"3.98 µM [falling, full curve]"
O=C(O)CC1c2ccccc2CCN1C(=O)Nc1cc(Cl)ccc1Cl (configuration not stated),AC50,[1],"20 µM [falling, partial curve]"
Cc1ccc(N(CC(=O)N2CCN(c3cc(C)ccc3C)CC2)S(=O)(=O)c2c(C)nn(C)c2C)cc1,AC50,[1],"15.8 µM [falling, partial curve]"
O=c1cc(CSc2nnc(-c3cccs3)n2Cc2ccccc2)nc2sc3ccccc3n12,AC50,[1],"7.94 µM [falling, partial curve]"
Cc1ccc2cc(CN(Cc3ccc4c(c3)OCO4)Cc3nnnn3Cc3ccco3)c(=O)[nH]c2c1,AC50,[1],"15.8 µM [falling, partial curve]"
COc1ccc(-n2c(C)cc(C(=O)Cn3c(NCCO)nc4ccccc43)c2C)cc1,AC50,[1],"20 µM [falling, partial curve]"
CCOC(=O)C1CCN(C(=O)c2cc3sc(C)cc3n2C)CC1,AC50,[1],"39.8 µM [falling, single point]"

# In another format: entries from further up.
smiles	measurement	setting	value
Cc1noc2ncnc(N3CCN(c4cccc(C(F)(F)F)c4)CC3)c12	AC50	[1]	31.6 µM [falling, single point]
COC(=O)COc1ccc(-c2nnc(Nc3ccc(O)cc3)c3ccccc23)cc1	AC50	[1]	3.98 µM [falling, full curve]
COCc1cc(=O)n2[nH]c(-c3ccccc3)cc2n1	AC50	[1]	3.98 µM [falling, full curve]
